Our source for the survivor count and T/C values is PubChem BioAssay AID330 (DTP/NCI, 2004).

Molecules are shown by their SMILES. The list does not hold the whole screen: it is rich in T/C values a quarter to a half above the control, in often repeated tests (any T/C) and in doses without a T/C. Other doses and runs of a compound stand elsewhere. T/C: endpoint of the treated group in % of that of the vehicle group. Some entries give survivors of the animals treated and no T/C: the source holds a T/C of zero for them, seemingly a mark for toxic or unscored doses. Some doses without a T/C left all or most animals alive at the check, yet need not have been tolerated: survival well below the control is almost never listed, so the zero probably covers shortened survival too. Survivors were counted at the toxicity check, usually on the fifth day, unless a day is given; later deaths do not show. Schedule codes are those of the source, read here as Q, the interval in days (D) or hours (H), X, the number of doses. Some entries hold several experiments; their values stand side by side, smallest first. Where survival is the endpoint, the PubChem record calls one and a half times the control and up active, and a quarter to a half above the control has no call in these data; cut-offs in other NCI protocols can differ.

In the assay the test system is P388 leukemia ip, CD2F1 mice, survival T/C. The assay is described as follows: NCI In Vivo Anticancer Drug Screen. Data for tumor model P388 Leukemia (intraperitoneal) in CD2F1 (CDF1) mice. To be noted: T/C endpoint: median survival time, higher T/C = longer survival.
[1] abbreviates: dose: 100.0 mg/kg/injection, schedule: Q01DX009 (ip), vehicle: saline.
Setting [2] is: dose: 200.0 mg/kg/injection, schedule: Q01DX009 (ip), vehicle: Klucel (hydroxypropylcellulose) (HPC).
[3] abbreviates: dose: 100.0 mg/kg/injection, schedule: Q01DX009 (ip), vehicle: saline with Tween-80.
The mark [4] stands for this setting: dose: 200.0 mg/kg/injection, schedule: Q01DX009 (ip), vehicle: saline with Tween-80.
Where [5] appears, read: dose: 200.0 mg/kg/injection, schedule: Q01DX005 (ip), vehicle: saline.
The mark [6] stands for this setting: dose: 120.0 mg/kg/injection, schedule: Q01DX005 (ip), vehicle: saline.
[7] abbreviates: dose: 240.0 mg/kg/injection, schedule: Q01DX005 (ip), vehicle: saline.
Setting [8] is: dose: 120.0 mg/kg/injection, schedule: Q01DX005 (ip), vehicle: saline with Tween-80.
[9] abbreviates: dose: 100.0 mg/kg/injection, schedule: Q01DX009 (ip), vehicle: Klucel (hydroxypropylcellulose) (HPC).
[10] abbreviates: dose: 50.0 mg/kg/injection, schedule: Q01DX009 (ip), vehicle: Klucel (hydroxypropylcellulose) (HPC).
[11] abbreviates: dose: 240.0 mg/kg/injection, schedule: Q01DX005 (ip), vehicle: saline with Tween-80.

In the case of `C=CCC(C(=O)OC)c1ccc(F)cc1` (centres undefined), the survivor count runs as follows: (dose: 0.25 mg/kg/injection, schedule: Q01DX009 (ip), vehicle: saline) 5 of 6; (dose: 0.5 mg/kg/injection, schedule: Q01DX009 (ip), vehicle: saline) 6 of 6.
As for `CCC(=O)NC(Cc1cccs1)C(=O)O` (centres undefined), the survivor count (dose: 50.0 mg/kg/injection, schedule: Q01DX009 (ip), vehicle: saline) is 6 of 6.
Take `COc1c(Br)cc(/C=C(/C)[N+](=O)[O-])cc1Br`: the survivor count (dose: 200.0 mg/kg/injection, schedule: Q04DX003 (ip), vehicle: saline with Tween-80) was 3 of 6.
In the case of `COC(=O)c1cc([N+](=O)[O-])ccc1N=NNc1ccccc1`, the survivor count (dose: 12.5 mg/kg/injection, schedule: Q01DX009 (ip), vehicle: saline) was 3 of 6 and the survivor count under setting [1] is listed as 5 of 6.
`CC(=O)C1=C(O)/C(=C\c2ccccc2)OC1=O`: under setting [2], the survivor count is given as 0 of 6.
For `c1ccc2c(c1)[nH]c1cc3ccncc3cc12`, the survivor count (dose: 400.0 mg/kg/injection, schedule: Q04DX003 (ip), vehicle: saline with Tween-80) is listed as 5 of 5.
Take `CON/C=C(C#N)/C=C/C=Nc1ccc(S(=O)(=O)N=C(N)N)cc1`: the survivor count was 6 of 6 under setting [3] and 5 of 6 under setting [4].
For the molecule `CC(Cl)CNCC(C)(C)C` (centres undefined), under setting [5], the survivor count is listed as 4 of 6.
On to `Nc1ccc2[se]ccc2c1`, for which, under setting [1], the survivor count is 6 of 6.
For `CCCCCCC(O)CCCCCCCCCCC(N)=O` (centres undefined), the survivor count was 5 of 5 (dose: 50.0 mg/kg/injection, schedule: Q01DX005 (ip), vehicle: Klucel (hydroxypropylcellulose) (HPC)); 5 of 5 (dose: 100.0 mg/kg/injection, schedule: Q01DX005 (ip), vehicle: Klucel (hydroxypropylcellulose) (HPC)); 5 of 5 (dose: 200.0 mg/kg/injection, schedule: Q01DX005 (ip), vehicle: Klucel (hydroxypropylcellulose) (HPC)).
Regarding `CCc1c(NCCCl)c(C(=O)NCCCl)c2nc3ccccc3n2c1NCCCl`, the survivor count (dose: 60.0 mg/kg/injection, schedule: Q01DX005 (ip), vehicle: saline) was 0 of 6; the survivor count under setting [6] was 0 of 6; the survivor count under setting [7] is reported as 0 of 6.
`COc1cccc2c1C(=O)c1c(O)c3c(c(O)c1C2=O)CC(O)(C(=O)COC(C)=O)CC3OC1CC(NC(C)=O)C(O)C(C)O1` (centres undefined): the T/C reads like this: (dose: 1.56 mg/kg/injection, schedule: Q01DX009 (ip), vehicle: other) 127 % of control; (dose: 6.25 mg/kg/injection, schedule: Q01DX009 (ip), vehicle: other) 129 % of control; (dose: 12.5 mg/kg/injection, schedule: Q01DX009 (ip), vehicle: other) 131 % of control.
`C[N+](C)(N)Cc1nc(-c2ccc(Cl)cc2)no1`: under “dose: 200.0 mg/kg/injection, schedule: Q01DX009 (ip), vehicle: saline”, the survivor count is listed as 0 of 6.
`CNC(=N)c1ccc(NC(=N)c2ccc(NC(=N)c3ccc(NC(=N)c4ccc(C(=N)NC)cc4)cc3)cc2)cc1`: for the setting “dose: 30.0 mg/kg/injection, schedule: Q01DX009 (ip), vehicle: saline with Tween-80”, the survivor count is 2 of 6.
Consider `CCCCCCCCCCCCCCCCOc1ccc(-c2cc(Cl)c3cc(S(=O)(=O)F)ccc3n2)cc1S(=O)(=O)F`, for which the survivor count was 6 of 6 under setting [3] and 6 of 6 (dose: 100.0 mg/kg/injection, schedule: Q04DX003 (ip), vehicle: saline with Tween-80).
`O/N=C\C[n+]1cc2ccccc2cc1/C=N\O`: under “dose: 200.0 mg/kg/injection, schedule: Q01DX005 (ip), vehicle: saline with Tween-80”, the survivor count is on record as 0 of 6.
On to `CCCCOP(=O)(O)OCCCC.[V]`, for which the survivor count (dose: 50.0 mg/kg/injection, schedule: Q01DX009 (ip), vehicle: saline with Tween-80) is given as 5 of 6.
In the case of `O=S(=O)(F)/C=C/c1ccccc1`, under setting [4], the survivor count is reported as 2 of 6.
Turning to `CCCCOc1ccc(/C=N/NC(=O)CNC(=O)Nc2cccc([N+](=O)[O-])c2)cc1`, under setting [8], the survivor count was 6 of 6.
Take `C/C=C/C(=O)Sc1ccccc1`: the survivor count is 0 of 6 under setting [9] and 0 of 6 under setting [2].
For the molecule `CC(C)CC1NC(=O)C(NC(=O)c2ncccc2O)C(C)OC(=O)C(c2ccccc2)N(C)C(=O)C(C)NC(=O)C(C(C)C(C)C)N(C)C(=O)CN(C)C(=O)C2CC(O)CN2C1=O` (centres undefined), the survivor count is, setting by setting: under setting [10], 6 of 6; (dose: 400.0 mg/kg/injection, schedule: Q01DX009 (ip), vehicle: Klucel (hydroxypropylcellulose) (HPC)) 0 of 6 and 1 of 6; (dose: 600.0 mg/kg/injection, schedule: Q01DX009 (ip), vehicle: Klucel (hydroxypropylcellulose) (HPC)) 0 of 6.
As to `O=C1OC(=O)C2C3C=CC(O3)C12` (centres undefined), the survivor count runs as follows: under setting [6], 1 of 6; under setting [7], 0 of 6.
As for `CCCCCCCCCC(C)N1CCCN=C1C` (centres undefined), the survivor count runs as follows: under setting [10], 0 of 6; under setting [9], 0 of 6; under setting [2], 0 of 6.
On to `Fc1ccnc(F)n1`, for which the survivor count runs as follows: (dose: 100.0 mg/kg/injection, schedule: Q04DX003 (ip), vehicle: water) 1 of 6; (dose: 200.0 mg/kg/injection, schedule: Q04DX003 (ip), vehicle: water) 0 of 6; (dose: 400.0 mg/kg/injection, schedule: Q04DX003 (ip), vehicle: water) 0 of 6.
As for `C1=Nc2ccccc2OCCOc2ccccc2N=Cc2ccccc2NCCNc2ccccc21`, where the note is “dose: 400.0 mg/kg/injection, schedule: Q04DX003 (ip), vehicle: saline”, the T/C was 133 % of control.
For the molecule `O=C(O)/C=C(\F)C(=O)O`, the survivor count under setting [5] is on record as 5 of 6; the survivor count (dose: 400.0 mg/kg/injection, schedule: Q01DX005 (ip), vehicle: saline) was 2 of 6 and 3 of 6.
On to `CCOC(=O)c1c(O)c(C)c(=O)n2c1[nH]c1cc(C)c(C)cc12`, for which, under setting [11], the survivor count was 6 of 6.
For `Cc1cc(C)[n+](C)c2cc3ccccc3cc12`, the T/C (dose: 25.0 mg/kg/injection, schedule: Q01DX005 (ip), vehicle: saline with Tween-80) was 125 % of control. Further, the survivor count (dose: 100.0 mg/kg/injection, schedule: Q01DX005 (ip), vehicle: saline with Tween-80) was 2 of 5.
For `COc1ccc(C(CC(=O)c2ccccc2)[Se]c2ccccc2)cc1` (centres undefined), the survivor count under setting [2] is on record as 5 of 6.
As to `CC(=O)Oc1cc2oc([O-])c[n+]2c2ccccc12`, the survivor count (dose: 120.0 mg/kg/injection, schedule: Q01DX005 (ip), vehicle: Klucel + Tween-80) is 3 of 6; the survivor count (dose: 240.0 mg/kg/injection, schedule: Q01DX005 (ip), vehicle: Klucel + Tween-80) is listed as 0 of 6; the survivor count (dose: 400.0 mg/kg/injection, schedule: Q01DX001 (ip), vehicle: saline with Tween-80) is 0 of 6 and 2 of 5.
For `CC(C)C([N+](C)(C)C)P(=O)([O-])O` (centres undefined), the survivor count (dose: 400.0 mg/kg/injection, schedule: Q01DX009 (ip), vehicle: saline with Tween-80) was 6 of 6.
As to `C=CCN(CC=C)c1nc(N)c2cc(OC)c(OC)cc2n1`, the survivor count (dose: 150.0 mg/kg/injection, schedule: Q01DX009 (ip), vehicle: suspension in saline) is 1 of 6.
`S=C1CC(c2ccc(Sc3ccccc3)cc2)=Nc2ccccc2N1`: under setting [10], the survivor count was 6 of 6.
Consider `N#CC(=O)Nc1cc(Cl)cc(Cl)c1`, for which the survivor count is given as 2 of 6 (dose: 30.0 mg/kg/injection, schedule: Q01DX005 (ip), vehicle: saline with Tween-80); 0 of 6 (dose: 60.0 mg/kg/injection, schedule: Q01DX005 (ip), vehicle: saline with Tween-80); 0 of 6 under setting [8]; 0 of 6 under setting [11].
